Data: PubChem BioAssay AID2685 (National Center for Advancing Translational Sciences (NCATS), 2010)
This is one part of the list. These are further read-outs of the screen, such as a control signal, another cell line or another target. No call is given for them. Most of these compounds were active or inconclusive in the main read-out, so they are no random draw. Potencies come from curve fits of mixed quality, noted in brackets.

Test: qHTS Assay for Lipid Storage Modulators in Drosophila S3 Cells;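 for cell number change: cells counted by Cell Tracker Red CMTPX staining in the red channel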
Settings: BODIPY lipid droplet fluorescence, 18-24 h; for cell number change: measured here: cell count max response, cells fed with added oleic acid
Method in brief: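 Laser-scanning cytometry quantifies lipid droplet accumulation (500–530 nm total intensity; droplet/cell object ratio) in oleic acid-fed (400 uM added) Drosophila S3 cells treated with a concentration series. 20 uM Triacsin C defined 100% inhibition.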

[1] = measured here: cell number channel AC50, cells fed with added oleic acid
[2] = measured here: lipid fluorescence (Fed channel) AC50, cells fed with added oleic acid

| Structure (SMILES) | cell number change [%] | AC50 [1] | AC50 [2] |
| --- | --- | --- | --- |
| COC(=O)c1c(C)[nH]c(C(=O)C(C)OC(=O)c2c(C)noc2C)c1C (stereo not given) | 30.1 | 14.6 µM [rising, single point] | 14.6 µM [rising, partial curve, poor fit] |
| Cc1ccc2nc(C)c(C(=O)NN=C3CCN(C)CC3)n2c1 | -15.3 | 0.58 µM [falling, single point] | 0.259 µM [falling, full curve] |
| O=C(Nc1ccc(Nc2ccccc2)cc1)Nc1ccccc1Cl | 7.8 | – | 29.1 µM [rising, single point] |
| CCOC(=O)C(C(=O)OCC)C(Nc1ccc(Br)cc1)c1ccccc1 (stereo not given) | -9.01 | – | 9.2 µM [falling, partial curve, poor fit] |
| O=C(c1cc(-c2cccs2)nc2ccccc12)N1CCN(S(=O)(=O)c2ccccc2)CC1 | 65.9 | 4.11 µM [rising, full curve] | – |
| O=C(c1cnn(C(=O)c2ccc(O)cc2)c1)c1ccccc1O | 10.5 | – | – |
| Cc1c(N=Cc2ccncc2)c(=O)n(-c2ccccc2)n1C | -6.31 | – | 3.66 µM [falling, single point] |
| CCOC(=O)C(C)Oc1ccc(NC(=O)C(Cl)Cl)cc1 (stereo not given) | -4.52 | – | – |
| CS(=O)(=O)c1ccc2nc(NC(=O)Nc3ccccc3F)sc2c1 | 33 | – | 0.517 µM [rising, full curve, poor fit] |
| CC(Oc1cccc(NC(=O)c2cccs2)c1)C(=O)c1ccccc1 (stereo not given) | -46.9 | 29.1 µM [falling, single point] | 1.16 µM [falling, full curve] |
| CN(C(=O)c1cc2n(n1)C(C(F)(F)F)CC(c1ccco1)N2)c1ccccc1 (stereo not given) | 30.9 | 3.26 µM [rising, partial curve] | 1.3 µM [rising, full curve] |
| NS(=O)(=O)c1ccc(CNC(=O)C(c2ccccc2)c2ccccc2)cc1 | -14.3 | – | 0.184 µM [falling, full curve, poor fit] |
| CCC(=O)Nc1nc(-c2ccccc2)nc(SC)c1C(C)=O | 0.543 | 1.3 µM [rising, full curve] | 1.84 µM [rising, partial curve] |
| CC(=O)N1CCN(C(=O)c2ccc(NS(=O)(=O)c3ccc4c(c3)OCCO4)cc2)CC1 | -131 | 5.8 µM [falling, partial curve] | 5.17 µM [falling, single point] |
| O=C(COC(=O)C12CC3CC(CC(O)(C3)C1)C2)Nc1cccc(Br)c1 | 19.5 | – | – |
| COc1ccc(-c2cc(C(=O)NCCN3CCOCC3)c3ccccc3n2)cc1OC | 6.36 | – | 25.9 µM [rising, partial curve] |
| O=C(COc1ccc(Cl)cc1)NCc1ccncc1 | 3.01 | 4.11 µM [falling, partial curve, poor fit] | 6.51 µM [falling, single point] |
| CC(C)c1ccc(NC2CCCN(C(=O)c3ccc(N4CCOCC4)cc3)C2)cc1 (stereo not given) | 1.16 | 0.58 µM [rising, full curve, poor fit] | – |
| COc1cccc(/C(C)=N/N=C(\C)c2cccc(OC)c2)c1 | 16.1 | – | – |

Of the compounds above, these contain fluorine:

| Structure (SMILES) | cell number change [%] | AC50 [1] | AC50 [2] |
| --- | --- | --- | --- |
| CS(=O)(=O)c1ccc2nc(NC(=O)Nc3ccccc3F)sc2c1 | 33 | – | 0.517 µM [rising, full curve, poor fit] |
| CN(C(=O)c1cc2n(n1)C(C(F)(F)F)CC(c1ccco1)N2)c1ccccc1 (stereo not given) | 30.9 | 3.26 µM [rising, partial curve] | 1.3 µM [rising, full curve] |

Next compounds follow.

| Structure (SMILES) | cell number change [%] | AC50 [1] | AC50 [2] |
| --- | --- | --- | --- |
| O=C(CCS(=O)(=O)c1ccccc1)Nc1ncc([N+](=O)[O-])s1 | – | – | 4.11 µM [falling, full curve] |
| COc1ccc(C2N(c3ccccn3)C(=O)C3CCCN32)c(OC)c1 (stereo not given) | -8.06 | – | 2.59 µM [rising, single point] |
| CCN(c1ccccc1)S(=O)(=O)c1ccc(C(=O)N(CCCN(C)C)c2nc3cc4c(cc3s2)OCO4)cc1 | -23.8 | – | 5.8 µM [rising, single point] |
| Cc1cnc(C(=O)OCC(=O)N2CCN(C(=O)c3ccco3)CC2)cn1 | -1.35 | – | – |
| O=C(CN1C(=O)NC2(CCc3ccccc32)C1=O)Nc1ccc(Br)cc1F (stereo not given) | 9.31 | – | 0.00461 µM [rising, full curve, poor fit] |
| CCc1c(C)nc2ncnn2c1Nc1ccc(C#N)c(Cl)c1 | -16.7 | – | – |
| Fc1ccccc1CNC(=S)NCc1ccc(Cl)cc1 | 3.47 | – | – |
| COc1cccc(NC(=O)CN2C(=O)CSc3nc(C)cc(C)c32)c1 | 8.36 | – | 20.6 µM [rising, single point] |
| CN(Cc1ccccc1)C(=O)c1ccccc1C(=O)O | 22.7 | 0.116 µM [rising, full curve, poor fit] | – |
| Oc1ccc(Br)cc1-c1cc(-c2ccco2)[nH]n1 | -10.5 | 0.651 µM [falling, single point] | – |
| CCOc1ccc2nc(N3CCCC(C(=O)NC4CCCC4)C3)sc2c1 (stereo not given) | 4.58 | – | – |
| O=c1c(-c2ccc(O)cc2)coc2cc(OC3OC(CO)C(O)C(O)C3O)ccc12 (stereo not given) | -19.5 | – | 4.11 µM [falling, full curve, poor fit] |
| CC(C)Oc1ccc(S(=O)(=O)N2CCOCC2)cc1NC(=O)c1cc([N+](=O)[O-])ccc1N1CCOCC1 | – | – | 29.1 µM [rising, single point] |
| CCCCCOC(=O)C1=C(C)Nc2nnnn2C1c1ccccc1Cl (stereo not given) | -81.5 | 29.1 µM [falling, single point] | 29.1 µM [falling, single point] |
| CCOc1ccc(CN2CCC(n3nccc3NC(=O)c3ccccc3OC)CC2)cc1 | 3.96 | 0.731 µM [rising, single point] | – |
| Cc1c(C(=O)NC(C)C)oc2c1-c1[nH]ncc1CC2 | -12.3 | – | – |
| Cc1cccc(Nc2ncc3c(n2)CC(C)CC3=O)c1 (stereo not given) | -37.9 | 11.6 µM [falling, single point] | – |
| O=C(NC1CCN(Cc2ccccc2)CC1)c1ccc(Cn2c(=S)[nH]c3ccc(N4CCOCC4)cc3c2=O)cc1 | -41.3 | 23.1 µM [falling, single point] | 29.1 µM [falling, single point] |
| COc1ccccc1NC(=O)C1CCCN1S(=O)(=O)c1ccc(Cl)cc1 (stereo not given) | 41 | 20.6 µM [rising, single point] | 29.1 µM [rising, single point] |
